Laboratory results from patent US12551500B2, “C6′-substituted locked nucleic acid-modified cap analog and use thereof” (Hangzhou Tianlong Pharmaceutical Co., Ltd., priority 2024, dated 2026).
At least one read-out could not be matched to a standard name with certainty.

Test system: HEK293T cells
Assay: Translation efficiency of capped luciferase mRNAs
Type: cell-based
Conditions: 24 hours after transfection with 0.5 μg capped luciferase mRNA, proportional to translation efficiency
Experimental: (1) HEK293T cells were cultured in DMEM medium containing 10% FBS and penicillin/streptomycin at 37° C. with 5% CO2.
(2) Cells in the culture dish were digested and counted, then spread in a 96-well plate at 10,000 cells per well, and cultured overnight until the cells adhered to the wall.
(3) When the cell density reached approximately 80%, transfection was performed by adding 0.5 μg of mRNA sample and Lipofectamine MessengerMAX Transfection Reagent (Invitrogen) per well according to the manufacturer's instructions.
(4) After the transfected cells were cultured at 37° C. with 5% CO2 for 24 hours, the growth medium was removed from the cells to be tested, and the cells were rinsed with PBS. After centrifugation to remove PBS, 50 μL of 1× lysis buffer was added. The cells and all liquid were transferred to a microcentrifuge tube and centrifuged.
(5) 20 μL of sample was taken and added to 100 μL of Dual-Lumi™ II Luciferase Assay Reagent pre-equilibrated to room temperature, and mixed appropriately.
(6) The mixture was incubated at room temperature (approximately 25° C.) for 5 minutes to stabilize the luminescence signal. Chemiluminescence was detected using a multifunctional microplate reader with a function for detecting chemiluminescence, and the data were recorded.

SMILES | Relative fluorescence intensity
COCC1C(O)[C@H]([n+]2cn(C)c3c(=O)[nH]c(N)nc32)O[C@@H]1COP(=O)(O)OP(=O)(O)OP(=O)(O)OC[C@H]1O[C@@H](n2cnc3c(N)ncnc32)C(OC)C1OP(=O)([O-])OC[C@H]1O[C@@H](n2cnc3c(=O)[nH]c(N)nc32)C(O)C1O (stereo partly drawn) [HN3002, reference compound] | 1.13
COC1C(OP(=O)([O-])OC[C@H]2O[C@@H](n3cnc4c(=O)[nH]c(N)nc43)C(O)C2O)[C@@H](COP(=O)(O)OP(=O)(O)OP(=O)(O)OC[C@H]2O[C@@H]([n+]3cn(C)c4c(=O)[nH]c(N)nc43)C(O)C2OC)O[C@H]1n1cnc2c(N)ncnc21 (stereo partly drawn) [N-7413, reference compound] | 1.00
CNc1ncnc2c1ncn2[C@@H]1O[C@H](COP(=O)(O)OP(=O)(O)OP(=O)(O)OC[C@H]2O[C@@H]([n+]3cn(C)c4c(=O)[nH]c(N)nc43)C(O)C2O)C(OP(=O)([O-])OC[C@H]2O[C@@H](n3cnc4c(=O)[nH]c(N)nc43)C(O)C2O)C1OC (stereo partly drawn) [m6A, reference compound] | 0.35
